Source: patent US20250283871A1, “COMPOSITIONS AND METHODS FOR MODULATING THE INTERACTION BETWEEN SS18-SSX FUSION ONCOPROTEIN AND NUCLEOSOMES” (Dana-Farber Cancer Institute, Inc., priority 2020, published 2025)

System: BAF complex subunits and histone proteins
Test: Mass spectrometry proteomics of purified HA-SS18 WT and HA-SS18-SSX1 complexes (Tables 5A-5E)
Design: species or system human
Settings: HEK-293T
[1] = HA-SS18SSX1_CHR_peptides: protein identified in the HA-SS18-SSX1 purification from solubilized chromatin (CHR)
[2] = HA-SS18WT_CHR_peptides: protein identified in HA-SS18 WT BAF complex purification from nuclease-treated solubilized chromatin (CHR)
[3] = HA-SS18WT_CHR_peptides: HA-SS18 WT purification from nuclease-treated solubilized chromatin (CHR), label = protein identified
[4] = HA-SS18SSX1 purification, NE (soluble nuclear extract) fraction, peptides per identified protein
[5] = HA-SS18WT_NE_peptides: HA-SS18 WT complexes purified from nuclear extract (NE), label = protein identified (Gene Symbol)

Molecule | Total (total peptides) [1] | Unique (unique peptides) [1] | Total (total peptides) [2] | Unique (unique peptides) [2] | Total (peptides) [3] | Unique (peptides) [3] | Total (total peptides) [4] | Unique (unique peptides) [4] | Total (peptides) [5] | Unique (peptides) [5]
UTP14C (protein, UniProt Q5TAP6 1-766, looked up) U3 small nucleolar …: MNVNQVAENLALSHQEELVDLPKNYPLSENEDEGDSDGERKHQKLLEAIISLDGKNRRKLAERSEASLKVSEFSVSSEGSGEKLGLADLLEPVKTSSSLATVKKQLNRVKSKKVVELPLNKEKIEQIHREVAFSKTSQVLSKWDPIILKNQQAEQLVFPLGKEQPAIAPIEHALSGWKARTPLEQEIFNLLHKNKQPVTDPLLTPMEKASLQAMSLEEAKMHRAELQRARALQSYYEAKARKEKKIKSKKYHKVVKKGKAKKALKEFEQLQKVNPTVALEEMEKIENARMMERMSLKHQNSGKWAKSKAIMAKYDLEARQAMQEQLAKNKELTQKLQVASESEEEEGGTEVEELLVPHVANEVQMNVDGPNPWMFRSCTSDTKEAATQEDPEQVPELAAHEVSASEAEERPVAEEEILLREFEERQSLRKRSELNQDAEPASSQETKDSSSQEVLSELRALSQKLKEKHQSRKQKASSEGTVPQVQREEPAPEEAEPLLLQRSERVQTLEELEELGKEDCFQNKELPRPVLEGQQSERTPNNRPDAPKEKKEKEQLINLQNFLTTQSPSVRSLAVPTIIEELEDEEERDQRQMIKEAFAGDDVIRDFLKEKREAVEASKPKDVDLTLPGWGEWGGVGLKPSAKKRRQFLIKAPEGPPRKDKNLPNVIISEKRNIHAAAHQVQVLPYPFTHHRQFERTIQTPIGSTWNTQRAFQKLTTPKVVTKPGHIIKPIKAEDVGYQSSSRSDLPVIQRNPKRITTRHNKEEKL | 6 | 4 | 2 | 2 | – | – | – | – | – | –
NGDN (protein, UniProt Q8NEJ9 2-315, looked up) Neuroguidin: AALGVLESDLPSAVTLLKNLQEQVMAVTAQVKSLTQKVQAGAYPTEKGLSFLEVKDQLLLMYLMDLTHLILDKASGGSLQGHDAVLRLVEIRTVLEKLRPLDQKLKYQIDKLIKTAVTGSLSENDPLRFKPHPSNMMSKLSSEDEEEDEAEDDQSEASGKKSVKGVSKKYVPPRLVPVHYDETEAEREKKRLERAKRRALSSSVIRELKEQYSDAPEEIRDARHPHVTRQSQEDQHRINYEESMMVRLSVSKREKGRRKRANVMSSQLHSLTHFSDISALTGGTVHLDEDQNPIKKRKKIPQKGRKKKGFRRRR | 6 | 5 | 2 | 2 | – | – | – | – | – | –
XAB2 (protein, UniProt Q9HCS7 1-855, looked up) Pre-mRNA-splicing factor SYF1: MVVMARLSRPERPDLVFEEEDLPYEEEIMRNQFSVKCWLRYIEFKQGAPKPRLNQLYERALKLLPCSYKLWYRYLKARRAQVKHRCVTDPAYEDVNNCHERAFVFMHKMPRLWLDYCQFLMDQGRVTHTRRTFDRALRALPITQHSRIWPLYLRFLRSHPLPETAVRGYRRFLKLSPESAEEYIEYLKSSDRLDEAAQRLATVVNDERFVSKAGKSNYQLWHELCDLISQNPDKVQSLNVDAIIRGGLTRFTDQLGKLWCSLADYYIRSGHFEKARDVYEEAIRTVMTVRDFTQVFDSYAQFEESMIAAKMETASELGREEEDDVDLELRLARFEQLISRRPLLLNSVLLRQNPHHVHEWHKRVALHQGRPREIINTYTEAVQTVDPFKATGKPHTLWVAFAKFYEDNGQLDDARVILEKATKVNFKQVDDLASVWCQCGELELRHENYDEALRLLRKATALPARRAEYFDGSEPVQNRVYKSLKVWSMLADLEESLGTFQSTKAVYDRILDLRIATPQIVINYAMFLEEHKYFEESFKAYERGISLFKWPNVSDIWSTYLTKFIARYGGRKLERARDLFEQALDGCPPKYAKTLYLLYAQLEEEWGLARHAMAVYERATRAVEPAQQYDMFNIYIKRAAEIYGVTHTRGIYQKAIEVLSDEHAREMCLRFADMECKLGEIDRARAIYSFCSQICDPRTTGAFWQTWKDFEVRHGNEDTIKEMLRIRRSVQATYNTQVNFMASQMLKVSGSATGTVSDLAPGQSGMDDMKLLEQRAEQLAAEAERDQPLRAQSKILFVRSDASREELAELAQQVNPEEIQLGEDEDEDEMDLEPNEVRLEQQSVPAAVFGSLKED | 5 | 5 | – | – | 6 | 6 | – | – | – | –
RBMX (protein, UniProt P38159 1-391, looked up) RNA-binding motif protein, X …: MVEADRPGKLFIGGLNTETNEKALEAVFGKYGRIVEVLLMKDRETNKSRGFAFVTFESPADAKDAARDMNGKSLDGKAIKVEQATKPSFESGRRGPPPPPRSRGPPRGLRGGRGGSGGTRGPPSRGGHMDDGGYSMNFNMSSSRGPLPVKRGPPPRSGGPPPKRSAPSGPVRSSSGMGGRAPVSRGRDSYGGPPRREPLPSRRDVYLSPRDDGYSTKDSYSSRDYPSSRDTRDYAPPPRDYTYRDYGHSSSRDDYPSRGYSDRDGYGRDRDYSDHPSGGSYRDSYESYGNSRSAPPTRGPPPSYGGSSRYDDYSSSRDGYGGSRDSYSSSRSDLYSSGRDRVGRQERGLPPSMERGYPPPRDSYSSSSRGAPRGGGRGGSRSDRGGGRSRY | 6 | 5 | – | – | 4 | 4 | – | – | – | –
WDR3 (protein, UniProt Q9UNX4 1-943, looked up) WD repeat-containing protein 3: MGLTKQYLRYVASAVFGVIGSQKGNIVFVTLRGEKGRYVAVPACEHVFIWDLRKGEKILILQGLKQEVTCLCPSPDGLHLAVGYEDGSIRIFSLLSGEGNVTFNGHKAAITTLKYDQLGGRLASGSKDTDIIVWDVINESGLYRLKGHKDAITQALFLREKNLLVTSGKDTMVKWWDLDTQHCFKTMVGHRTEVWGLVLLSEEKRLITGASDSELRVWDIAYLQEIEDPEEPDPKKIKGSSPGIQDTLEAEDGAFETDEAPEDRILSCRKAGSIMREGRDRVVNLAVDKTGRILACHGTDSVLELFCILSKKEIQKKMDKKMKKARKKAKLHSSKGEEEDPEVNVEMSLQDEIQRVTNIKTSAKIKSFDLIHSPHGELKAVFLLQNNLVELYSLNPSLPTPQPVRTSRITIGGHRSDVRTLSFSSDNIAVLSAAADSIKIWNRSTLQCIRTMTCEYALCSFFVPGDRQVVIGTKTGKLQLYDLASGNLLETIDAHDGALWSMSLSPDQRGFVTGGADKSVKFWDFELVKDENSTQKRLSVKQTRTLQLDEDVLCVSYSPNQKLLAVSLLDCTVKIFYVDTLKFFLSLYGHKLPVICMDISHDGALIATGSADRNVKIWGLDFGDCHKSLFAHDDSVMYLQFVPKSHLFFTAGKDHKIKQWDADKFEHIQTLEGHHQEIWCLAVSPSGDYVVSSSHDKSLRLWERTREPLILEEEREMEREAEYEESVAKEDQPAVPGETQGDSYFTGKKTIETVKAAERIMEAIELYREETAKMKEHKAICKAAGKEVPLPSNPILMAYGSISPSAYVLEIFKGIKSSELEESLLVLPFSYVPDILKLFNEFIQLGSDVELICRCLFFLLRIHFGQITSNQMLVPVIEKLRETTISKVSQVRDVIGFNMAGLDYLKRECEAKSEVMFFADATSHLEEKKRKRKKREKLILTLT | 5 | 5 | – | – | – | – | – | – | – | –
HNRNPF (protein, UniProt P52597 1-415, looked up) Heterogeneous nuclear …: MMLGPEGGEGFVVKLRGLPWSCSVEDVQNFLSDCTIHDGAAGVHFIYTREGRQSGEAFVELGSEDDVKMALKKDRESMGHRYIEVFKSHRTEMDWVLKHSGPNSADSANDGFVRLRGLPFGCTKEEIVQFFSGLEIVPNGITLPVDPEGKITGEAFVQFASQELAEKALGKHKERIGHRYIEVFKSSQEEVRSYSDPPLKFMSVQRPGPYDRPGTARRYIGIVKQAGLERMRPGAYSTGYGGYEEYSGLSDGYGFTTDLFGRDLSYCLSGMYDHRYGDSEFTVQSTTGHCVHMRGLPYKATENDIYNFFSPLNPVRVHIEIGPDGRVTGEADVEFATHEEAVAAMSKDRANMQHRYIELFLNSTTGASNGAYSSQVMQGMGVSAAQATYSGLESQSVSGCYGAGYSGQNSMGGYD | 6 | 5 | – | – | 3 | 3 | 5 | 5 | 4 | 4
ZNF280C (protein, UniProt Q8ND82 1-737, looked up) Zinc finger protein 280C: MDDDKPFQPKNISKMAELFMECEEEELEPWQKKVEETQDEDDDELIFVGEISSSKPAISNILNRGHSSSSSKGIKSEPHSPGIPEIFRTASQRCRDPPSNPVAASPRFHLVSKSSQSSVTVENASKPDFTKNSQVGSDNSSILLFDSTQESLPPSQDIPAIFREGMKNTSYVLKHPSTSKVNSVTPKKPKTSEDVPQINPSTSLPLIGSPPVTSSQVMLSKGTNTSSPYDAGADYLRACPKCNVQFNLLDPLKYHMKHCCPDMITKFLGVIVKSERPCDEDKTDSETGKLIMLVNEFYYGRHEGVTEKEPKTYTTFKCFSCSKVLKNNIRFMNHMKHHLELEKQNNESWENHTTCQHCYRQYPTPFQLQCHIESTHTPHEFSTICKICELSFETEHILLQHMKDTHKPGEMPYVCQVCQFRSSTFSDVEAHFRAAHENTKNLLCPFCLKVSKMATPYMNHYMKHQKKGVHRCPKCRLQFLTSKEKAEHKAQHRTFIKPKELEGLPPGAKVTIRASLGPLQSKLPTAPFGCAPGTSFLQVTPPTSQNTTARNPRKSNASRSKTSKLHATTSTASKVNTSKPRGRIAKSKAKPSYKQKRQRNRKNKMSLALKNIRCRRGIHKCIECHSKIKDFASHFSIYIHCSFCKYNTNCNKAFVNHMMSSHSNHPGKRFCIFKKHSGTLRGITLVCLKCDFLADSSGLDRMAKHLSQRKTHTCQVIIENVSKSTSTSEPTTGCSLK | 6 | 5 | – | – | – | – | – | – | – | –
